The values that follow come from US20150038435A1 (Novo Nordisk A/S, priority 2012, published 2015).

The series in a line: general procedure: Fmoc solid-phase peptide synthesis; 2-Chlorotrityl resin 100-200 mesh 1.7 mmol/g; TCTU / N,N-diisopropylethylamine. Conditions: whole synthesis, scale of the general procedure 2.31 g resin, 3.93 mmol, first Fmoc amino acid 2.62 mmol.

Turning to Ala-Ala-Pro-Phe-OH, where the note is “ELSD”, the “purity (crude or final not stated)” value is recorded as 100%.

Take N-dodecandioyl-Ala-Ala-Pro-Phe-OH: under “ELSD”, the “purity (crude or final not stated)” value was determined as 100%.

In the case of N-dodecanoyl-Aib-Aib-Pro-Phe-OH, the “purity (crude or final not stated)” value (ELSD) came to 100%.

As to “N-dodecanoyl-Ala-Ala-Ala-Ala-Ala-Pro-Phe-OH”, the “purity (crude or final not stated)” value (ELSD) is listed as 98%.

On to N-dodecanoyl-Ala-Ala-Pro-DPhe-OH, for which, under “ELSD”, the “purity (crude or final not stated)” value turned out to be 100%.

Consider N-dodecanoyl-Ala-Ala-Pro-His-OH, for which the “purity (crude or final not stated)” value (LC-MS (ELSD)) stood at 100%.

For the substance N-dodecanoyl-Ala-Ala-Pro-Leu-OH, the “purity (crude or final not stated)” value (ELSD) is 100%.

As for N-dodecanoyl-Ala-Ala-Pro-Phe-OH, the “purity (crude or final not stated)” value (ELSD) is reported as 100%.

For the substance N-dodecanoyl-DAla-DAla-DPro-DPhe-OH, the “purity (crude or final not stated)” value (ELSD) came to 100%.

N-dodecanoyl-Leu-Thr-Trp-Pro-Tyr-OH: the “purity (crude or final not stated)” value (ELSD) stood at 95%.

Regarding N-dodecanoyl-OEG-OEG-DPhe-OEG-OH, the “purity (crude or final not stated)” value (ELSD) turned out to be 100%.

N-dodecanoyl-OEG-OEG-Phe-OEG-OH: the “purity (crude or final not stated)” value (ELSD) is on record as 100%.

Take N-dodecanoyl-βAla-Ala-Pro-Phe-OH: the “purity (crude or final not stated)” value (ELSD) is given as 99%.

As for N-dodecanoyl-βAla-βAla-Pro-Phe-OH, the “purity (crude or final not stated)” value (ELSD) is recorded as 100%.

With N-dodecanoyl-βAla-βAla-Pro-Phe-Pro-OH, the “purity (crude or final not stated)” value (ELSD) was determined as 98%.

For the substance N-dodecanoyl-γGlu-Ala-Ala-Pro-Phe-OH, the “purity (crude or final not stated)” value (ELSD) came to 95%.

For the substance “N-dodecanoyl-γGlu-His-Ala-Ala-Pro-Tyr-OH”, the “purity (crude or final not stated)” value (ELSD) is given as 100%.

On to “N-dodecanoyl-γGlu-OEG-Ala-Ala-Pro-Phe-OH”, for which the “purity (crude or final not stated)” value (ELSD) was found to be 95%.

In the case of N-dodecanoyl-γGlu-OEG-OEG-Arg-OH, the “purity (crude or final not stated)” value (ELSD) worked out at 100%.

As to N-dodecanoyl-γGlu-OEG-OEG-DArg-OH, the “purity (crude or final not stated)” value (ELSD) was found to be 100%.

On to N-dodecanoyl-γGlu-OEG-Pro-Arg-OH, for which the “purity (crude or final not stated)” value (ELSD) was 100%.

Consider N-eicosanoyl-Ala-Ala-Pro-Phe-OH, for which, under “ELSD”, the “purity (crude or final not stated)” value was determined as 100%.

With N-hexadecanoyl-Ala-Ala-Pro-D-Phe-OH, where the note is “ELSD”, the “purity (crude or final not stated)” value is 100%.

Take N-hexadecanoyl-Glu-Ala-Ala-Pro-D-Phe-OH: the “purity (crude or final not stated)” value reads like this: (ELSD, run 1) 98%; (ELSD, run 2) 100%.

Regarding N-hexadecanoyl-Thr-Ala-Ala-Pro-Phe-OH, the “purity (crude or final not stated)” value (ELSD) was found to be 96%.

With N-hexadecanoyl-γGlu-Ala-Ala-Pro-Phe-OH, the “purity (crude or final not stated)” value (ELSD, run 1) is recorded as 100%; the “purity (crude or final not stated)” value (ELSD, run 2) was found to be 98%; the “purity (crude or final not stated)” value (LC-MS (ELSD)) is 98%.

N-hexadecanoyl-γGlu-Ala-Pro-Phe-OH: the “purity (crude or final not stated)” value (ELSD) amounted to 100%.

“N-hexadecanoyl-γGlu-D-Ala-D-Ala-D-Pro-D-Phe-OH”: the “purity (crude or final not stated)” value (LC-MS (ELSD)) amounted to 100%.

As for “N-hexadecanoyl-γGlu-OEG-Ala-Ala-Pro-Phe-OH”, for the setting “ELSD”, the “purity (crude or final not stated)” value was 98%.

As for N-icosanoyl-γGlu-Ala-Ala-Pro-Phe-OH, for the setting “ELSD”, the “purity (crude or final not stated)” value is recorded as 100%.

With N-icosanoyl-γGlu-Ala-Pro-Phe-OH, the “purity (crude or final not stated)” value is, setting by setting: (ELSD) 100%; (LC-MS (ELSD)) 96%.

As for N-octadecanoyl-Ala-Ala-Pro-Phe-OH, the “purity (crude or final not stated)” value (ELSD) is 100%.

With N-octadecanoyl-γGlu-Ala-Ala-Pro-Phe-OH, where the note is “ELSD”, the “purity (crude or final not stated)” value was found to be 100%.

As for N-octadecanoyl-γGlu-Ala-Pro-Phe-OH, the “purity (crude or final not stated)” value (ELSD) worked out at 100%.

For N-tetradecandioyl-Ala-Ala-Pro-Phe-OH, the “purity (crude or final not stated)” value (ELSD) turned out to be 100%.

Turning to “N-tetradecanoy-γGlu-His-Ala-Ala-Pro-Tyr-OH”, the “purity (crude or final not stated)” value (ELSD) was 100%.

As for “N-tetradecanoyl-Ala-Ala-Ala-Ala-Pro-Phe-OH”, under “ELSD”, the “purity (crude or final not stated)” value was 98%.

For N-tetradecanoyl-Ala-Ala-Pro-DPhe-OH, the “purity (crude or final not stated)” value (ELSD) is 100%.

Consider N-tetradecanoyl-Ala-Ala-Pro-Phe-OH, for which, where the note is “ELSD”, the “purity (crude or final not stated)” value came to 97%.

Regarding N-tetradecanoyl-Arg-Ala-Ala-Pro-Phe-OH, where the note is “ELSD”, the “purity (crude or final not stated)” value was determined as 100%.

For “N-tetradecanoyl-Arg-His-Ala-Arg-Pro-Phe-OH”, the “purity (crude or final not stated)” value (LC-MS (ELSD)) was 100%.

“N-tetradecanoyl-Arg-Pro-Leu-bAla-Ala-Pro-D-Phe-OH”: the “purity (crude or final not stated)” value (ELSD) was found to be 97%.

For the substance “N-tetradecanoyl-D-His-D-Ala-D-Arg-D-Pro-D-Phe-OH”, the “purity (crude or final not stated)” value (LC-MS (ELSD)) was 100%.

In the case of “N-tetradecanoyl-Glu-Ala-Ala-Pro-D-Phe-OH”, the “purity (crude or final not stated)” value (ELSD) is on record as 100%.

As to N-tetradecanoyl-Glu-Ala-Ala-Pro-Phe-OH, the “purity (crude or final not stated)” value (ELSD) was 100%.

As to N-tetradecanoyl-Glu-Ala-Ala-Pro-Trp-OH, the “purity (crude or final not stated)” value (ELSD) amounted to 100%.

N-tetradecanoyl-Glu-Ala-Pro-Phe-OH: the “purity (crude or final not stated)” value (ELSD) is 100%.

Turning to N-tetradecanoyl-His-Ala-Ala-Pro-Phe-OH, where the note is “ELSD”, the “purity (crude or final not stated)” value amounted to 100%.

Turning to N-tetradecanoyl-His-Ala-Arg-Pro-Phe-OH, under “ELSD”, the “purity (crude or final not stated)” value stood at 100%.

As to N-tetradecanoyl-His-Ala-Trp-Pro-Phe-OH, the “purity (crude or final not stated)” value (ELSD) came out at 100%.

As to N-tetradecanoyl-Leu-Ala-Ala-Pro-Tyr-OH, the “purity (crude or final not stated)” value (ELSD) worked out at 100%.

Regarding “N-tetradecanoyl-Leu-betaAla-Ala-Pro-DPhe-OH”, for the setting “ELSD”, the “purity (crude or final not stated)” value worked out at 97%.

As to N-tetradecanoyl-Lys-Ala-Arg-Pro-Phe-OH, where the note is “ELSD”, the “purity (crude or final not stated)” value is on record as 95%.

On to N-tetradecanoyl-Thr-Ala-Ala-Pro-Phe-OH, for which the “purity (crude or final not stated)” value (ELSD) is 95%.

For the substance N-tetradecanoyl-Thr-Ala-Ala-Pro-Tyr-OH, under “ELSD”, the “purity (crude or final not stated)” value was 96%.

For N-tetradecanoyl-bAsp-Ala-Ala-Pro-Phe-OH, under “ELSD”, the “purity (crude or final not stated)” value amounted to 100%.

For N-tetradecanoyl-bAsp-Ala-Pro-Phe-OH, the “purity (crude or final not stated)” value (ELSD) amounted to 100%.

As for “N-tetradecanoyl-eLys-His-Ala-Arg-Pro-Phe-OH”, the “purity (crude or final not stated)” value (LC-MS (ELSD)) stood at 97%.

For the substance N-tetradecanoyl-βAla-Ala-Pro-Phe-OH, the “purity (crude or final not stated)” value (ELSD) amounted to 100%.

As to N-tetradecanoyl-βAla-βAla-Pro-Phe-OH, for the setting “ELSD”, the “purity (crude or final not stated)” value was determined as 100%.

On to “N-tetradecanoyl-βAla-βAla-βAla-Pro-Phe-OH”, for which the “purity (crude or final not stated)” value (ELSD) came out at 100%.

In the case of “N-tetradecanoyl-βAla-βAla-βAla-βAla-Pro-Phe-OH”, the “purity (crude or final not stated)” value (ELSD) was found to be 98%.

For N-tetradecanoyl-γGlu-Ala-Arg-Pro-Phe-OH, the “purity (crude or final not stated)” value (ELSD) was 100%.

Take N-tetradecanoyl-γGlu-Ala-Pro-D-Phe-OH: the “purity (crude or final not stated)” value (LC-MS (ELSD)) worked out at 100%.

Regarding N-tetradecanoyl-γGlu-Ala-Pro-D-Trp-OH, where the note is “LC-MS (ELSD)”, the “purity (crude or final not stated)” value worked out at 97%.

N-tetradecanoyl-γGlu-Ala-Pro-Phe-OH: the “purity (crude or final not stated)” value (LC-MS (ELSD)) worked out at 99%.

For N-tetradecanoyl-γGlu-Ala-Pro-Trp-OH, the “purity (crude or final not stated)” value (LC-MS (ELSD)) turned out to be 100%.

As for “N-tetradecanoyl-γGlu-D-Ala-D-Ala-D-Pro-D-Phe-OH”, the “purity (crude or final not stated)” value (LC-MS (ELSD)) came out at 100%.

On to N-tetradecanoyl-γGlu-DAla-DPro-DPhe-OH, for which the “purity (crude or final not stated)” value (LC-MS (ELSD)) stood at 100%.

On to “N-tetradecanoyl-γGlu-His-Ala-Arg-Pro-Phe-OH”, for which the “purity (crude or final not stated)” value (LC-MS (ELSD)) was 100%.

As to “N-tetradecanoyl-γGlu-OEG-Ala-Ala-Pro-Phe-OH”, the “purity (crude or final not stated)” value (ELSD) stood at 96%.

Consider “N-tetradecanoyl-γGlu-βAla-βAla-Pro-Phe-OH”, for which, where the note is “ELSD”, the “purity (crude or final not stated)” value is listed as 100%.

As for “N-tetradecanoyl-γGlu-γGlu-Ala-Pro-Phe-OH”, the “purity (crude or final not stated)” value (LC-MS (ELSD)) amounted to 98%.

On to N-tetradecanoyl-γGlu-γGlu-Phe-Phe-OH, for which the “purity (crude or final not stated)” value (LC-MS (ELSD)) amounted to 99%.

In the case of N-tetradecanoyl-γGlu-γGlu-Pro-Phe-OH, the “purity (crude or final not stated)” value (LC-MS (ELSD)) was 100%.

Take PEG12-Ala-Ala-Pro-Phe-OH: under “ELSD”, the “purity (crude or final not stated)” value stood at 100%.
